Measured values published in patent US6838019B2, “Phosphorescent material and electroluminescent device using thereof” (Ritek Corporation, priority 2001, dated 2005).

Assay: Relative quantum efficiency test
Type: physicochemical
Conditions: dichloromethane solution, optical density 0.5, relative to standard Tb(TMHD)3
Experimental: The quantum efficiencies of Tb(TMHD)3—DMSO, Tb(TMHD)3—MPSO, Tb(TMHD)3—DPSO, Tb(TMHD)3—OPNP are compared with that of the standard Tb(TMHD)3.
An appropriate amount of Tb(TMHD)3—DMSO, Tb(TMHD)3—MPSO, TB(TNHD)3—DPSO, Tb(TMHD)3—OPNP is dissolved in a dichloromethane solvent to a form a diluted solution having an optical density of 0.5 for the UV-VIS absorption (Instrument used: Hitachi UV-Vis spectrophotometer 3010). The fluorescence of the various samples is compared with that of the standard (Instrument used: Hitachi fluorescence spectrophotometer F-4500) and the results are presented in terms relative quantum efficiencies calculated using the relative quantum efficiency formula: (Φs/Φst)=(As/Ast)×(ODst/ODs)×(Qst/Qs)×100% • Φs: fluorescence quantum efficiency of the sample • Φst: fluorescence quantum efficiency of the standard • As: area under the fluorescence spectrum line of the sample • Ast: area under the fluorescence spectrum line of the standard • ODs: degree of absorption of the sample under the maximum wavelength λmax of the UV-VIS spectrum • ODst: degree of absorption of the standard under the maximum wavelength λmax of the UV-VIS spectrum • Qs: number of photons provided to the sample by the fluorescence exciting light source • Qst: number of photons provided to the standard by the fluorescence exciting light source • Under a same intensity of the light source, Qst/Qs is equal to 1 Therefore, under the same intensity of the light source and by obtaining the integrated area and the OD value of the UV-VIS spectrum, the relative quantum efficiency is determined. Table 2 summarizes the relative quantum efficiencies and the maximum wavelengths λ max of the UV-VIS spectrum for the different samples.

| Compound | Relative Quantum Efficiency |
| --- | --- |
| CC(C)(C)C(=O)C=C([O-])C(C)(C)C.CC(C)(C)C(=O)C=C([O-])C(C)(C)C.CC(C)(C)C(=O)C=C([O-])C(C)(C)C.CS(=O)c1ccccc1.[Tb+3] [Tb(TMHD)3-MPSO, tri(2,2,6,6-tetramethyl-3,5-heptanedionate) Tb(III) methyl phenyl sulfoxide] | 0.93% |
| CC(C)(C)C(=O)C=C([O-])C(C)(C)C.CC(C)(C)C(=O)C=C([O-])C(C)(C)C.CC(C)(C)C(=O)C=C([O-])C(C)(C)C.CS(C)=O.[Tb+3] [Tb(TMHD)3-DMSO, tri(2,2,6,6-tetramethyl-3,5-heptanedionate) Tb(III) dimethyl sulfoxide] | 0.74% |
| CC(C)(C)C(=O)[CH-]C(=O)C(C)(C)C.CC(C)(C)C(=O)[CH-]C(=O)C(C)(C)C.CC(C)(C)C(=O)[CH-]C(=O)C(C)(C)C.[Tb+3] [Tb(TMHD)3, tris(2,2,6,6-tetramethyl-3,5-heptanedionato) Terbium(III), reference compound] | 1.00% |
| CC(C)(C)C(=O)C=C([O-])C(C)(C)C.CC(C)(C)C(=O)C=C([O-])C(C)(C)C.CC(C)(C)C(=O)C=C([O-])C(C)(C)C.O=S(c1ccccc1)c1ccccc1.[Tb+3] [Tb(TMHD)3-DPSO, tri(2,2,6,6-tetramethyl-3,5-heptanedionate) Tb(III) diphenyl sulfoxide] | 1.21% |
| Tris(2,2,6,6-tetramethyl-3,5-heptanedionato) Terbium (III) diphenyl phosphonimide tris-phenyl phosphorane [Tb(TMHD)3-OPNP, reference compound] | 0.67% |
